In the supplement of paper PMC8728848:
The list shows a part of the results.

What was measured:
Assay in all cases: glycan array binding signal (z-score within array); higher = stronger binding
Settings in all cases: glycan notation: IUPAC condensed, linker removed
[1] = target: Neu5Ac(a2-3)Gal(b1-3)GalNAc6S
Outline: (§1)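 Glycan array binding is given as a within-array Z-score, which can be read as non-binding when negative. The arrays, 3228 of them, came from the Consortium for Functional Glycomics database and were retained only where the protein sequence was available. Z-scores were averaged across arrays of the same protein sequence at different concentrations or buffers and across linkers.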

[2] = target: Neu5Ac(a2-3)Gal(b1-3)GlcNAc
Outline: as §1

[3] = target: Neu5Ac(a2-3)Gal(b1-3)GlcNAc(b1-3)Gal(b1-3)GlcNAc
Outline: as §1

[4] = target: Neu5Ac(a2-3)Gal(b1-3)GlcNAc(b1-3)Gal(b1-4)GlcNAc
Outline: as §1

[5] = target: Neu5Ac(a2-3)Gal(b1-3)GlcNAc(b1-3)GalNAc
Outline: as §1

[6] = target: Neu5Ac(a2-3)Gal(b1-3)GlcNAc6S
Outline: as §1

[7] = target: Neu5Ac(a2-3)Gal(b1-3)[Fuc(a1-4)]GlcNAc
Outline: as §1

[8] = target: Neu5Ac(a2-3)Gal(b1-3)[Fuc(a1-4)]GlcNAc(b1-3)Gal(b1-3)[Fuc(a1-4)]GlcNAc
Outline: as §1

[9] = target: Neu5Ac(a2-3)Gal(b1-3)[Fuc(a1-4)]GlcNAc(b1-3)Gal(b1-4)[Fuc(a1-3)]GlcNAc
Outline: as §1

[10] = target: Neu5Ac(a2-3)Gal(b1-3)[Neu5Ac(a2-3)Gal(b1-4)]GlcNAc
Outline: as §1

[11] = target: Neu5Ac(a2-3)Gal(b1-3)[Neu5Ac(a2-6)]GalNAc
Outline: as §1

Neu5Ac(a2-3)Gal(b1-4)Glc = target: Neu5Ac(a2-3)Gal(b1-4)Glc
Outline: as §1

[12] = target: Neu5Ac(a2-3)Gal(b1-4)GlcNAc
Outline: as §1

[13] = target: Neu5Ac(a2-3)Gal(b1-4)GlcNAc(b1-2)Man(a1-3)[GlcNAc(b1-2)Man(b1-4)GlcNAc(b1-2)Man(a1-6)]Man(b1-4)GlcNAc(b1-4)GlcNAc
Outline: as §1

[14] = target: Neu5Ac(a2-3)Gal(b1-4)GlcNAc(b1-2)Man(a1-3)[Neu5Ac(a2-6)Gal(b1-4)GlcNAc(b1-2)Man(a1-6)]Man(b1-4)GlcNAc(b1-4)GlcNAc
Outline: as §1

[15] = target: Neu5Ac(a2-3)Gal(b1-4)GlcNAc(b1-3)Gal
Outline: as §1

[16] = target: Neu5Ac(a2-3)Gal(b1-4)GlcNAc(b1-3)Gal(b1-3)GlcNAc
Outline: as §1

[17] = target: Neu5Ac(a2-3)Gal(b1-4)GlcNAc(b1-3)Gal(b1-4)GlcNAc
Outline: as §1

[18] = target: Neu5Ac(a2-3)Gal(b1-4)GlcNAc(b1-3)Gal(b1-4)GlcNAc(b1-3)Gal(b1-4)GlcNAc
Outline: as §1

[19] = target: Neu5Ac(a2-3)Gal(b1-4)GlcNAc(b1-3)Gal(b1-4)[Fuc(a1-3)]GlcNAc
Outline: as §1

[20] = target: Neu5Ac(a2-3)Gal(b1-4)GlcNAc(b1-3)GalNAc
Outline: as §1

[21] = target: Neu5Ac(a2-3)Gal(b1-4)GlcNAc(b1-6)[Gal(b1-3)]GalNAc
Outline: as §1

[22] = target: Neu5Ac(a2-3)Gal(b1-4)GlcNAc(b1-6)[Neu5Ac(a2-3)Gal(b1-3)]GalNAc
Outline: as §1

[23] = target: Neu5Ac(a2-3)Gal(b1-4)GlcNAc6S
Outline: as §1

[24] = target: Neu5Ac(a2-3)Gal(b1-4)[Fuc(a1-3)]GlcNAc
Outline: as §1

[25] = target: Neu5Ac(a2-3)Gal(b1-4)[Fuc(a1-3)]GlcNAc(b1-3)Gal
Outline: as §1

[26] = target: Neu5Ac(a2-3)Gal(b1-4)[Fuc(a1-3)]GlcNAc(b1-3)Gal(b1-4)GlcNAc
Outline: as §1

[27] = target: Neu5Ac(a2-3)Gal(b1-4)[Fuc(a1-3)]GlcNAc(b1-3)Gal(b1-4)[Fuc(a1-3)]GlcNAc(b1-3)Gal(b1-4)[Fuc(a1-3)]GlcNAc
Outline: as §1

[28] = target: Neu5Ac(a2-3)Gal(b1-4)[Fuc(a1-3)]GlcNAc(b1-3)GalNAc
Outline: as §1

[29] = target: Neu5Ac(a2-3)Gal(b1-4)[Fuc(a1-3)]GlcNAc(b1-6)[Gal(b1-3)]GalNAc
Outline: as §1

[30] = target: Neu5Ac(a2-3)Gal(b1-4)[Fuc(a1-3)]GlcNAc6S
Outline: as §1

[31] = target: Neu5Ac(a2-3)Gal6S(b1-4)GlcNAc
Outline: as §1

[32] = target: Neu5Ac(a2-3)Gal6S(b1-4)[Fuc(a1-3)]GlcNAc
Outline: as §1

Neu5Ac(a2-3)GalNAc = target: Neu5Ac(a2-3)GalNAc
Outline: as §1

[33] = target: Neu5Ac(a2-3)GalNAc(b1-4)GlcNAc
Outline: as §1

[34] = target: Neu5Ac(a2-3)[GalNAc(b1-4)]Gal(b1-4)Glc
Outline: as §1

[35] = target: Neu5Ac(a2-3)[GalNAc(b1-4)]Gal(b1-4)GlcNAc
Outline: as §1

[36] = target: Neu5Ac(a2-3)[GalNAc(b1-4)]Gal(b1-4)GlcNAc(b1-3)GalNAc
Outline: as §1

[37] = target: Neu5Ac(a2-3)[Neu5Ac(a2-6)]GalNAc
Outline: as §1

Neu5Ac(a2-6)Gal = target: Neu5Ac(a2-6)Gal
Outline: as §1

[38] = target: Neu5Ac(a2-6)Gal(b1-3)GlcNAc(b1-3)[Gal(b1-4)GlcNAc(b1-6)]Gal(b1-4)Glc
Outline: as §1

Neu5Ac(a2-6)Gal(b1-4)Glc = target: Neu5Ac(a2-6)Gal(b1-4)Glc
Outline: as §1

[39] = target: Neu5Ac(a2-6)Gal(b1-4)GlcNAc
Outline: as §1

[40] = target: Neu5Ac(a2-6)Gal(b1-4)GlcNAc(b1-2)Man(a1-3)Man(b1-4)GlcNAc(b1-4)GlcNAc
Outline: as §1

[41] = target: Neu5Ac(a2-6)Gal(b1-4)GlcNAc(b1-2)Man(a1-3)[Gal(b1-4)GlcNAc(b1-2)Man(a1-6)]Man(b1-4)GlcNAc(b1-4)GlcNAc
Outline: as §1

B1: Eosinophil-derived neurotoxin (EDN) (Homo sapiens), P10153 (protein)
chain: MVPKLFTSQICLLLLLGLLAVEGSLHVKPPQFTWAQWFETQHINMTSQQCTNAMQVINNYQRRCKNQNTFLLTTFANVVNVCGNPNMTCPSNKTRKNCHHSGSQVPLIHCNLTTPSPQNISNCRYAQTPANMFYIVACDNRDQRRDPPQYPVVPVHLDRII
glycan array binding signal (z-score) [1]: 0.027
glycan array binding signal (z-score) [2]: -0.205
glycan array binding signal (z-score) [3]: -0.703
glycan array binding signal (z-score) [4]: 0.141
glycan array binding signal (z-score) [5]: -0.041
glycan array binding signal (z-score) [6]: -0.082
glycan array binding signal (z-score) [7]: 0.855
glycan array binding signal (z-score) [8]: -0.07
glycan array binding signal (z-score) [9]: 0.422
glycan array binding signal (z-score) [10]: 0.04
glycan array binding signal (z-score) [11]: 0.143
glycan array binding signal (z-score) (Neu5Ac(a2-3)Gal(b1-4)Glc): -0.14
glycan array binding signal (z-score) [12]: 0.614
glycan array binding signal (z-score) [13]: -0.078
glycan array binding signal (z-score) [14]: 1.08
glycan array binding signal (z-score) [15]: -0.711
glycan array binding signal (z-score) [16]: 0.087
glycan array binding signal (z-score) [17]: -0.327
glycan array binding signal (z-score) [18]: 0.122
glycan array binding signal (z-score) [19]: -0.259
glycan array binding signal (z-score) [20]: 0.703
glycan array binding signal (z-score) [21]: 1.16
glycan array binding signal (z-score) [22]: -0.238
glycan array binding signal (z-score) [23]: -0.089
glycan array binding signal (z-score) [24]: -0.232
glycan array binding signal (z-score) [25]: -0.389
glycan array binding signal (z-score) [26]: 0.331
glycan array binding signal (z-score) [27]: 0.454
glycan array binding signal (z-score) [28]: 0.955
glycan array binding signal (z-score) [29]: 0.427
glycan array binding signal (z-score) [30]: 0.105
glycan array binding signal (z-score) [31]: -1.26
glycan array binding signal (z-score) [32]: -0.455
glycan array binding signal (z-score) (Neu5Ac(a2-3)GalNAc): 0.007
glycan array binding signal (z-score) [33]: 0.074
glycan array binding signal (z-score) [34]: 0.28
glycan array binding signal (z-score) [35]: 0.011
glycan array binding signal (z-score) [36]: -1.23
glycan array binding signal (z-score) [37]: 0.025
glycan array binding signal (z-score) (Neu5Ac(a2-6)Gal): 0.598
glycan array binding signal (z-score) [38]: 0.328
glycan array binding signal (z-score) (Neu5Ac(a2-6)Gal(b1-4)Glc): -0.474
glycan array binding signal (z-score) [39]: 0.105
glycan array binding signal (z-score) [40]: -0.179
glycan array binding signal (z-score) [41]: 1.86
